Publication PMC11170107, “Development of a new hazard scoring system in primary neuronal cell cultures for drug-induced acute neuronal toxicity identification in early drug discovery” (Frontiers in Pharmacology, 2024)

system: rat primary cortical neurons; assay: MEA hazard scoring in rat primary cortical neuronal cultures; conditions: 113 reference drugs

| Compound | correctness of hazard classification against known seizure risk in man |
| --- | --- |
| NC[C@H]1CC[C@H](C(=O)O)CC1 [Tranexamic Acid] | not correctly classified |
| N=C(N)NC(=O)c1nc(Cl)c(N)nc1N [Amiloride] | false positive |
| COc1cc2c(cc1OC)C(=O)C(CC1CCN(Cc3ccccc3)CC1)C2 (stereo not shown) [Donepezil] | not correctly classified |
| Clc1ccc2c(c1)C(N1CCNCC1)=Nc1ccccc1O2 [Amoxapine] | not correctly classified |
